At least one compound was matched to its structure with a doubt left.
Legend:
[1] = target: class III PI3K (Homo sapiens, UniProt Q8NEB9); conditions: cited from earlier work
[2] = system: PC3 xenograft tumors; experiment: PC3 xenograft tumor growth; assay type: in vivo, mice; conditions: FIG. 18 G
Method: Xenograft study: Six- to 8-week-old female athymic nude nu/nu mice were purchased from Charles River Laboratories and maintained in Genentech's conventional animal facility. Mice were injected in the right flank with 5˜7.5×10^6 cells resuspended in 200 μl Hank's Balanced Salt Solution (Invitrogen). When tumors reached a mean volume of 100˜300 mm^3 the mice with similarly-sized tumors were grouped into treatment cohorts. […] Amber-colored water bottles were used and were changed 3 times per week. […] Tumors were measured with calipers and mice weighed twice per week. Mice whose tumors reached 2000 mm^3 or lost more than 20% body weight were euthanized. Between 8˜10 mice were used for each treatment group. Statistical significance was analyzed using the JMP software (SAS Institute, Inc.).
We next examined the effect of Akt KDs on the ability of PC3 cells to maintain the growth of established tumors in vivo.

The chains behind the UniProt entries cited, without tags or fusion partners.
UniProt Q8NEB9, whole entry: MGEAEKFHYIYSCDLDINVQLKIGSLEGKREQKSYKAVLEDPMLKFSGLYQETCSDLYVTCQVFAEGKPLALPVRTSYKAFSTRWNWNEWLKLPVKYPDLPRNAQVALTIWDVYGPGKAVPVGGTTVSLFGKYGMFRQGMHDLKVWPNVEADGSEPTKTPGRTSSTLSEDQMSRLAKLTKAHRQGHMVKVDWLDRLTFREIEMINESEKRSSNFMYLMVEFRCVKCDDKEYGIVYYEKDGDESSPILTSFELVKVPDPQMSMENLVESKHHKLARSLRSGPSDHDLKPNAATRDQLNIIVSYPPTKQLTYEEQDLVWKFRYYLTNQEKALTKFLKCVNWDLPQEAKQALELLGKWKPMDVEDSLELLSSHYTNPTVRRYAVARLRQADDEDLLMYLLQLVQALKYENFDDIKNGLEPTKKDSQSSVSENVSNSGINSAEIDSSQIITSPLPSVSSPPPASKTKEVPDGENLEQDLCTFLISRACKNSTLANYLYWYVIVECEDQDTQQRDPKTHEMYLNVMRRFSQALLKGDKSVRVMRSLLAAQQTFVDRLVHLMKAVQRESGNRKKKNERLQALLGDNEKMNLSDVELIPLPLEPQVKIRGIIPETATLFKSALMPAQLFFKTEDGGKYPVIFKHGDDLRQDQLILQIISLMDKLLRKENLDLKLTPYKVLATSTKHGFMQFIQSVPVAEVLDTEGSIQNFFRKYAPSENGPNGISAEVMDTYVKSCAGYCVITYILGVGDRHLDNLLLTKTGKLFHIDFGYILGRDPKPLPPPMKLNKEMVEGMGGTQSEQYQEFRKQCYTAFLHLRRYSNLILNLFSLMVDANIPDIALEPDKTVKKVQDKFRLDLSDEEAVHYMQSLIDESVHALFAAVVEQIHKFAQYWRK

| Compound | relative potency on class I and III PI3Ks [1] | growth of wild-type PC3 cells [2] |
| --- | --- | --- |
| O=c1cc(N2CCOCC2)oc2c(-c3ccccc3)cccc12 [LY294002] | equipotent at inhibiting both class I and III PI3Ks | – |
| C[C@H]1c2cccc(O)c2C(=O)C2=C(O)[C@]3(O)C(=O)C(C(N)=O)=C(O)[C@@H](N(C)C)[C@@H]3[C@@H](O)[C@@H]21 [Dox, doxycycline] | – | no effect on the growth of wild-type PC3 cells |
| COC[C@H]1OC(=O)c2coc3c2[C@@]1(C)C1=C(C3=O)[C@@H]2CCC(=O)[C@@]2(C)C[C@H]1OC(C)=O [wortmannin] | equipotent at inhibiting both class I and III PI3Ks | – |

From patent US20140004209A1, “AUTOPHAGY INDUCER AND INHIBITOR COMBINATION THERAPY FOR THE TREATMENT OF NEOPLASMS” (GENENTECH, INC., priority 2010, published 2014)
